Assay results reported in PubChem BioAssay AID2685 (National Center for Advancing Translational Sciences (NCATS), 2010).
Some of the results follow. The main result of the screen is listed elsewhere. These columns were measured beside it and carry no call. The list favours compounds with an active or inconclusive main result. Potencies come from curve fits of mixed quality, noted in brackets.

Assay: qHTS Assay for Lipid Storage Modulators in Drosophila S3 Cells;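 as to cell number change: cells counted by Cell Tracker Red CMTPX staining in the red channel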
Details: BODIPY lipid droplet fluorescence, 18-24 h; for cell number change: measured here: cell count max response, cells fed with added oleic acid
In short: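 Drosophila S3 cells got compounds at several concentrations plus oleic acid (400 uM solution). Laser-scanning cytometry with 488 nm excitation read lipid droplets at 500-530 nm and cells at 575-640 nm. Percent activity was relative to 20 uM Triacsin C.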

[1] = measured here: cell number channel AC50, cells fed with added oleic acid
[2] = measured here: lipid fluorescence (Fed channel) AC50, cells fed with added oleic acid

| SMILES | AC50 [1] | AC50 [2] | cell number change [%] |
| --- | --- | --- | --- |
| Cc1ccc(N(CC(=O)Nc2ccc(C)cc2C)S(=O)(=O)N2CCCC2)cc1 | 1.3 µM [rising, partial curve] | 0.082 µM [rising, full curve, poor fit] |  |
| COc1cc(C(=O)Nc2c(C)cc(C)cc2C)c([N+](=O)[O-])cc1OC | 0.58 µM [falling, full curve, poor fit] | 4.11 µM [falling, full curve, poor fit] | -66.7 |
| Cc1c2ccccc2cc(Cc2ccccc2)[n+]1C |  | 0.411 µM [rising, single point] | -12.4 |
| O=[N+]([O-])c1ccc(Nc2ccc(F)cc2)nc1 | 29.1 µM [rising, single point] | 10.3 µM [falling, partial curve] | 40.6 |
| COc1ccc(C(=O)N/N=C/c2ccc(OC)c(CN3CCc4cc(OC)c(OC)cc4C3C)c2)cc1 (stereo unspecified) |  | 18.4 µM [rising, single point] | 2.88 |
| CC(C)(C)N1CC(C(=O)Nc2cccc(Cl)c2Cl)CC1=O (stereo unspecified) |  |  | -0.313 |
| CC(C)Oc1ccc(C(=O)OC(C)C(=O)NC2CCCCC2C)cc1 (stereo unspecified) |  | 20.6 µM [rising, single point] | -11.5 |
| Cn1nc(C(=O)Nc2ccc(S(=O)(=O)N3CCOCC3)cc2)c2ccccc2c1=O |  | 5.8 µM [falling, single point] | 137 |
| CCOC(=O)N1CCN(C(=O)CN(C2CCCCC2)S(C)(=O)=O)CC1 |  |  | -28.2 |
| Cc1cc(Cl)ccc1OCC(=O)Nc1ccccc1NS(=O)(=O)c1cccs1 |  |  | 17.6 |
| Cc1ccccc1NC(=O)NCC1CCN(Cc2cccc(Cl)c2)CC1 |  | 6.51 µM [rising, partial curve, poor fit] | 18.7 |
| CSc1nncc(/C(C)=N\Nc2ccccc2C)n1 | 0.461 µM [rising, partial curve] |  | 72.8 |
| Cn1cc(-c2cccc(C(F)(F)F)c2)cc(C#N)c1=O |  | 23.1 µM [falling, single point] | 6.31 |
| Cc1ccc(NC(=S)N(CCN2CCCCC2)Cc2ccco2)cc1Cl |  |  | 15.9 |
| Cc1cccc(N/N=C(\C(N)=O)C2=NC(C)(C)Cc3ccccc32)c1 | 29.1 µM [falling, single point] | 16.4 µM [falling, single point] | -71.4 |
| CCOC(=O)C1=C(N)Oc2cc(O)ccc2C1c1ccc([N+](=O)[O-])cc1 (stereo unspecified) | 18.4 µM [falling, partial curve, poor fit] |  | -32.3 |
| COc1cccc(OC)c1C(=O)Nc1cccc(-n2cnnn2)c1 |  | 29.1 µM [falling, single point] | -9.54 |
| Cc1cccc(C(=O)NN/C=C/C(=O)c2ccccc2)c1 |  | 16.4 µM [falling, partial curve] | -8.14 |
| CCN(CC)CC(=O)Nc1c(C)cc(C(C)(C)C)cc1C | 2.91 µM [falling, full curve] | 29.1 µM [falling, partial curve] | -74.9 |
| Cc1nn(-c2ccccc2)c(N2CCCC2)c1/C=N/NC(=O)c1cc(-c2ccccn2)nc2ccccc12 | 25.9 µM [falling, single point] | 16.4 µM [falling, partial curve] | -41.4 |

| SMILES | AC50 [1] | AC50 [2] | cell number change [%] |
| --- | --- | --- | --- |
| N#CCOC(=O)C1c2ccccc2Oc2ccccc21 |  |  | -3.6 |
| C=CCn1c(SCC(=O)N2CC(=O)Nc3ccccc32)nc2scc(-c3cccs3)c2c1=O |  | 5.17 µM [rising, partial curve] | -5.29 |
| Cc1cc(Cl)c(C)c(S(=O)(=O)N2CCN(C(=O)C3CCCO3)CC2)c1Cl (stereo unspecified) |  | 29.1 µM [falling, single point] | 9.95 |
| Cc1cccc(N(CC(=O)NCCSCc2ccco2)S(=O)(=O)c2ccccc2)c1 |  | 1.3 µM [falling, full curve, poor fit] | -24.5 |
| COc1ccc(N(CC(O)Cn2cnc3ccccc32)S(=O)(=O)c2ccc(C)cc2)cc1 (stereo unspecified) | 29.1 µM [rising, single point] |  | 70.6 |
| CC(C)(C)C(=O)CSc1ccc(S(=O)(=O)N2CCCC2)cn1 |  |  | 4.51 |
| O=C(CSc1nnc2c(n1)[nH]c1ccc(F)cc12)N1CCOCC1 |  | 4.11 µM [falling, partial curve] |  |
| NC(=O)c1nsc(C(=O)N(c2ccc3c(c2)OCCO3)C(C(=O)NCC2CCCO2)c2ccc(F)cc2)c1N (stereo unspecified) |  | 2.91 µM [rising, single point] | 20.3 |
| CC(C)(C)NS(=O)(=O)c1ccc(C(=O)Nc2ccc3c(c2)OCO3)cc1 |  | 29.1 µM [rising, single point] | 2.1 |
| CCOc1ccccc1NC(=S)NC(=O)c1ccco1 |  | 29.1 µM [rising, single point] | 9.67 |
| CCOC(=O)C1CCCN(CCSc2ccc(C)cc2)C1 (stereo unspecified) |  | 18.4 µM [rising, single point] | -13.5 |
| O=C1CC(N2CCN(Cc3ccc4c(c3)OCO4)CC2)C(=O)N1CCc1ccccc1 (stereo unspecified) | 20.6 µM [rising, single point] |  | 173 |
| O=C(CNC(=O)c1ccc(Br)o1)NCc1ccc(Cl)cc1Cl |  | 5.8 µM [rising, full curve] | 9.73 |
| Cc1nnc(N2CCCC(C(=O)NCc3ccc(OC(C)C)cc3)C2)c2nn(-c3ccccc3)c(C)c12 (stereo unspecified) | 1.84 µM [rising, partial curve, poor fit] | 18.4 µM [falling, single point] | -2.28 |
| Cc1cc2nnn(-c3nnc(-c4ccccc4)c4ccccc34)c2cc1C |  | 20.6 µM [falling, partial curve] |  |
| CCCCOc1ccc(/C=C/C(=O)NC2=Nc3ccccc3NC(C)=C2C(=O)OCC)cc1OC |  |  | 19.2 |
| O=C(NCCCn1ccnc1)C1CC(c2cccc(Br)c2)=NO1 (stereo unspecified) |  |  | 7.35 |
| Cc1ccc(C)c(NC(=O)CSc2nncn2C)c1 |  | 29.1 µM [rising, single point] | 22 |
| CC(C)CN(C(=O)COC(=O)C12CC3CC(CC(O)(C3)C1)C2)C1CCS(=O)(=O)C1 (stereo unspecified) | 0.146 µM [falling, full curve, poor fit] | 0.326 µM [falling, full curve] | -24.8 |
| COC(=O)C(Cc1cnc(Cl)s1)(C(=O)OC)c1ccccc1[N+](=O)[O-] | 25.9 µM [rising, single point] |  | 61.3 |

| SMILES | AC50 [1] | AC50 [2] | cell number change [%] |
| --- | --- | --- | --- |
| Cc1ccc(NC(=O)C(NC2CCCc3ccccc32)c2ccccc2)c([N+](=O)[O-])c1 (stereo unspecified) | 10.3 µM [rising, single point] | 13 µM [rising, partial curve] | 30.7 |
| COc1ccc(CNC(=O)C/C(C)=N/NC(=O)C(c2ccccc2)c2ccccc2)cc1 |  |  | -10.9 |
| CC(NC(=O)NC1CCCCC1)c1ccccc1 (stereo unspecified) |  | 32.6 µM [falling, single point] | -4.23 |
| Cc1cc(NC(=O)C2CCN(S(=O)(=O)c3cnc[nH]3)CC2)ccc1Br |  | 6.51 µM [rising, single point] | 0.338 |
| Cc1cc(C)cc(N2C(=O)CC(N3CCOCC3)C2=O)c1 (stereo unspecified) |  | 1.3 µM [falling, full curve] | 1.1 |
| CCCCCCc1nc2c(=O)[nH]c3ccccc3c2o1 |  | 0.366 µM [rising, single point] | 16.6 |
| Cc1cc(=O)oc2cc(NC(=O)C3CCCC3)ccc12 |  |  | 36.3 |
| CCOc1cc(/C=N/NC(=O)Cn2nc([N+](=O)[O-])cc2C)cc(Br)c1OCc1ccccc1F | 1.84 µM [rising, partial curve] | 1.3 µM [rising, partial curve] | 71.9 |
| O=C1CSC(c2cn(-c3ccccc3)nc2-c2ccc3c(c2)OCCO3)N1CCN1CCOCC1 (stereo unspecified) |  |  | -0.68 |
| CCOCCCNC(=O)C(NC(=O)c1cnccn1)c1ccc(C)cc1 (stereo unspecified) | 8.2 µM [falling, partial curve, poor fit] | 29.1 µM [falling, partial curve] | -46.6 |
| O=S(=O)([N-]c1nc2ccccc2nc1-[n+]1ccccc1)c1ccc(F)cc1 | 23.1 µM [falling, single point] |  | -41.7 |
| Cn1cc(-c2ccccc2C(=O)O)c(=O)c2cc(Cl)ccc21 |  | 29.1 µM [falling, partial curve, poor fit] | -29.6 |
| CCCCC(=O)Nc1cccc(-c2ccc3nncn3n2)c1 |  | 5.17 µM [falling, full curve, poor fit] | 5.97 |
| CC(=O)N(Cc1cccs1)C1CCOC(C)(C)C1 (stereo unspecified) |  | 0.651 µM [falling, single point] | -8.42 |
| CN(CCO)C(=O)c1c(NC(=O)c2ccccc2)sc2c1CCCC2 |  |  | 7.02 |
| O=C(NCC1c2ccccc2CCN1C(=O)CN1C(=O)c2ccccc2C1=O)C1CCCCC1 (stereo unspecified) | 20.6 µM [falling, partial curve] | 0.0461 µM [falling, full curve, poor fit] | -69.7 |
| NNc1nc(-c2ccccc2)cc(-c2ccccc2O)n1 |  |  | -2.01 |
| CC(Sc1nc2ccccc2n1C)C(=O)NC(c1ccccc1)c1ccccc1 (stereo unspecified) |  | 29.1 µM [falling, single point] | -19.6 |
| CC(=O)Nc1ccc(NC(=O)COC(=O)/C=C/c2ccc3c(c2)OCO3)cc1 |  | 29.1 µM [falling, single point] |  |
| C=CCN1C(=O)C2C(C(=O)NC)C3(C)C=CC2(O3)C1C(=O)NCc1ccc(OC)cc1 (stereo unspecified) | 0.651 µM [falling, partial curve, poor fit] | 18.4 µM [falling, single point] | -16.6 |

13 compounds out of the list, arranged by molar mass, smallest number first.

| SMILES | AC50 [1] | AC50 [2] | cell number change [%] |
| --- | --- | --- | --- |
| Cc1cc(C)cc(N2C(=O)CC(N3CCOCC3)C2=O)c1 (stereo unspecified) |  | 1.3 µM [falling, full curve] | 1.1 |
| CCOC(=O)C1CCCN(CCSc2ccc(C)cc2)C1 (stereo unspecified) |  | 18.4 µM [rising, single point] | -13.5 |
| COc1cccc(OC)c1C(=O)Nc1cccc(-n2cnnn2)c1 |  | 29.1 µM [falling, single point] | -9.54 |
| Cc1cccc(N/N=C(\C(N)=O)C2=NC(C)(C)Cc3ccccc32)c1 | 29.1 µM [falling, single point] | 16.4 µM [falling, single point] | -71.4 |
| O=C(CSc1nnc2c(n1)[nH]c1ccc(F)cc12)N1CCOCC1 |  | 4.11 µM [falling, partial curve] |  |
| CCOC(=O)C1=C(N)Oc2cc(O)ccc2C1c1ccc([N+](=O)[O-])cc1 (stereo unspecified) | 18.4 µM [falling, partial curve, poor fit] |  | -32.3 |
| CC(C)(C)NS(=O)(=O)c1ccc(C(=O)Nc2ccc3c(c2)OCO3)cc1 |  | 29.1 µM [rising, single point] | 2.1 |
| CC(=O)Nc1ccc(NC(=O)COC(=O)/C=C/c2ccc3c(c2)OCO3)cc1 |  | 29.1 µM [falling, single point] |  |
| Cc1ccc(NC(=O)C(NC2CCCc3ccccc32)c2ccccc2)c([N+](=O)[O-])c1 (stereo unspecified) | 10.3 µM [rising, single point] | 13 µM [rising, partial curve] | 30.7 |
| Cc1cc(Cl)c(C)c(S(=O)(=O)N2CCN(C(=O)C3CCCO3)CC2)c1Cl (stereo unspecified) |  | 29.1 µM [falling, single point] | 9.95 |
| C=CCN1C(=O)C2C(C(=O)NC)C3(C)C=CC2(O3)C1C(=O)NCc1ccc(OC)cc1 (stereo unspecified) | 0.651 µM [falling, partial curve, poor fit] | 18.4 µM [falling, single point] | -16.6 |
| O=C1CSC(c2cn(-c3ccccc3)nc2-c2ccc3c(c2)OCCO3)N1CCN1CCOCC1 (stereo unspecified) |  |  | -0.68 |
| C=CCn1c(SCC(=O)N2CC(=O)Nc3ccccc32)nc2scc(-c3cccs3)c2c1=O |  | 5.17 µM [rising, partial curve] | -5.29 |
